According to patent publication US20050250831A1, “Peroxisome proliferator activated receptor modulators” (priority 2002, published 2005):
At least one structure is not confirmed: it was looked up by name or label, or the drawing left a doubt.

System: Male Syrian hamsters
Experiment: LDL-cholesterol, total-cholesterol and triglyceride lowering effect in hypercholesterolemic hamsters
Type: in vivo
Conditions: hamsters on high-fat cholesterol-rich diet; fenofibrate 200 mg/kg by gavage daily for 14 days; compared to vehicle

CC(C)OC(=O)C(C)(C)Oc1ccc(C(=O)c2ccc(Cl)cc2)cc1 [fenofibrate, Fenofibrate]
reduction in total cholesterol and triglyceride levels: did not show significant efficacy
